PubChem BioAssay AID1259424 – University of Nebraska Medical Center – 2018
Purpose: 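Seek colon cancer survival genes behaving like KSR1, using a six-gene signature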 (primary screen). Cells: human HCT116 colon cancer cells. Reagents: siRNA pool against human genes, 50 nM. Read-out: 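Log2 levels of six mRNAs (branched-DNA multiplex), adjusted by two reference genes and the non-targeting median, then scored against the average KSR1 knockdown pattern as Pearson r and euclidean distance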. Scale: mean correlation with KSR1 profile: higher = expression change more like KSR1 knockdown; mean distance from KSR1 profile: higher = expression change less like KSR1 knockdown.
This is an unselected part of about 14,000 reagents. 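Higher correlation or smaller distance means closer resemblance to KSR1 loss; control wells, including KSR1 knockdowns, recur on many plates.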 Further read-outs or replicates are left out here. The record does not give: the time to read-out.

How did the screen score MARCHF2 (membrane associated ring-CH-type finger 2)?
mean correlation with KSR1 profile: -0.289; mean distance from KSR1 profile: 3.18

What is on record for TXN (thioredoxin)?
mean correlation with KSR1 profile: -0.768; mean distance from KSR1 profile: 2.38

How did the screen score RPL36AL (ribosomal protein L36a like)?
mean correlation with KSR1 profile: -0.334; mean distance from KSR1 profile: 3.89

How did the screen score H2AC7 (H2A clustered histone 7)?
mean correlation with KSR1 profile: -0.372; mean distance from KSR1 profile: 3.08

For UCN (urocortin), what does the deposit list?
mean correlation with KSR1 profile: 0.14; mean distance from KSR1 profile: 2.75

With MINDY1 (MINDY lysine 48 deubiquitinase 1), what does the deposit list?
mean correlation with KSR1 profile: -0.491; mean distance from KSR1 profile: 4.19

With DENND1A (DENN domain containing 1A), what does the deposit list?
mean correlation with KSR1 profile: 0.00147; mean distance from KSR1 profile: 2.05

How did the screen score DNAL4 (dynein axonemal light chain 4)?
mean correlation with KSR1 profile: -0.248; mean distance from KSR1 profile: 3.64

What did the screen give for SECISBP2 (SECIS binding protein 2)?
mean correlation with KSR1 profile: -0.753; mean distance from KSR1 profile: 1.94

Which result is listed for CCDC28A (coiled-coil domain containing 28A)?
mean correlation with KSR1 profile: 0.213; mean distance from KSR1 profile: 1.73

With DYNC1LI1 (dynein cytoplasmic 1 light intermediate chain 1), what was measured?
mean correlation with KSR1 profile: 0.287; mean distance from KSR1 profile: 1.67

With OXT (oxytocin/neurophysin I prepropeptide), how do the results read?
mean correlation with KSR1 profile: 0.444; mean distance from KSR1 profile: 1.18

A few values from above.
For “mean correlation with KSR1 profile”, DYNC1LI1 (dynein cytoplasmic 1 light intermediate chain 1) reads 0.287
DENND1A (DENN domain containing 1A), mean correlation with KSR1 profile = 0.00147
